PubChem BioAssay AID743454 – Peter MacCallum Cancer Centre – 2014
In all, the deposit lists about 18,000 reagents; below is an unselected part. 450 of them (2.5%) were called active. 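Single biological run; no consistent viability z cut-off exists, so the class columns, not z-scores, define the calls.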

- Aim: 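Genes whose loss kills vorinostat-resistant colon cancer cells under vorinostat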 (primary screen)
- Cell system: human HCT116-VR colon cancer cells, selected for vorinostat resistance
- Reagents: siRNA pool against human genes, 40 nM siRNA pool
- Time to read-out: vorinostat for 24 h, read-out about 72 h after transfection
- Challenge: vorinostat at 2.5 µM final
- Measured: 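Cell viability by CellTiter-Fluor and caspase 3/7 activity by luminescence, each scaled to mock wells per plate, duplicates averaged, then robust z-scored over all plates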
- Scale: viability robust z-score: higher = more viable cells than screen typical; caspase robust z-score: higher = more caspase 3/7 activity than screen typical
- Hit rule: 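a knock-down is a hit when classed RV1 or RV2 for lowered viability, or CA1 or CA2 for caspase activation; those lethal without drug were dropped; hits were retested singly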

{"target gene": "EHMT1 (GeneID 79813)", "viability hit class": "no change", "caspase hit class": "no change", "viability robust z-score": -0.52, "caspase robust z-score": 0.26, "Outcome": "inactive"}
{"target gene": "TLCD3B (GeneID 83723)", "viability hit class": "no change", "caspase hit class": "no change", "viability robust z-score": -0.9, "caspase robust z-score": 3.13, "Outcome": "inactive"}
{"target gene": "CARD6 (GeneID 84674)", "viability hit class": "no change", "caspase hit class": "no change", "viability robust z-score": 1.94, "caspase robust z-score": -0.22, "Outcome": "inactive"}
{"target gene": "SCAMP2 (GeneID 10066)", "viability hit class": "no change", "caspase hit class": "no change", "viability robust z-score": 0.28, "caspase robust z-score": -0.62, "Outcome": "inactive"}

Not a retest: 2 of the entries above.
{"target gene": "EHMT1 (GeneID 79813)", "viability hit class": "no change", "caspase hit class": "no change", "viability robust z-score": -0.52, "caspase robust z-score": 0.26, "Outcome": "inactive"}
{"target gene": "TLCD3B (GeneID 83723)", "viability hit class": "no change", "caspase hit class": "no change", "viability robust z-score": -0.9, "caspase robust z-score": 3.13, "Outcome": "inactive"}

More entries follow.
{"target gene": "RAPGEF3 (GeneID 10411)", "viability hit class": "no change", "caspase hit class": "no change", "viability robust z-score": -1.07, "caspase robust z-score": 3.17, "Outcome": "inactive"}
{"target gene": "HLA-C (GeneID 3107)", "viability hit class": "no change", "caspase hit class": "no change", "viability robust z-score": 0.83, "caspase robust z-score": -0.2, "Outcome": "inactive"}
{"target gene": "RDH10 (GeneID 157506)", "viability hit class": "no change", "caspase hit class": "no change", "viability robust z-score": 0.83, "caspase robust z-score": -0.56, "Outcome": "inactive"}
{"target gene": "CAPNS1 (GeneID 826)", "viability hit class": "no change", "caspase hit class": "no change", "viability robust z-score": -0.28, "caspase robust z-score": 0.6, "Outcome": "inactive"}
{"target gene": "ANKMY2 (GeneID 57037)", "viability hit class": "no change", "caspase hit class": "no change", "viability robust z-score": -0.51, "caspase robust z-score": -0.58, "Outcome": "inactive"}
{"target gene": "MED28 (GeneID 80306)", "viability hit class": "no change", "caspase hit class": "CA2 (caspase activation)", "viability robust z-score": -0.72, "caspase robust z-score": 5.46, "Outcome": "active"}
{"target gene": "KIAA0825 (GeneID 285600)", "viability hit class": "no change", "caspase hit class": "no change", "viability robust z-score": 1.28, "caspase robust z-score": -0.24, "Outcome": "inactive"}
{"target gene": "POLR3F (GeneID 10621)", "viability hit class": "no change", "caspase hit class": "no change", "viability robust z-score": -0.74, "caspase robust z-score": 0.65, "Outcome": "inactive"}
